Assay results published in patent US20150197492A1, “NOVEL INDENO[1,2-c]QUINOLIN-11-ONE DERIVATIVES, PREPARATION METHOD AND APPLICATION THEREOF” (National Defense Medical Center, priority 2014, published 2015).

system: 55 to 60 cancer cell lines; type: cell-based; details: 10 μM, 48 hours, growth percentage over all tested cell lines

Question: Which Delta does the source give for CNc1nc2ccccc2c2c1-c1ccc(Cl)cc1C2=O [SJ-1, 9-Chloro-6-(methylamino)-11H-indeno[1,2-c]quinolin-11-one] here?
Answer: Its Delta is 115.76.

Question: And the Range?
Answer: The Range was 146.5.

Question: With CCN(CC)CCNc1nc2ccccc2c2c1-c1ccc(Cl)cc1C2=O [SJ-3, 6-(2-(Diethylamino)ethylamino)-9-chloro-11H-indeno[1,2-c]quinolin-11-one] as the molecule, how does the Delta read?
Answer: The Delta was 52.65.

Question: And the Range?
Answer: Its Range is 89.81.

Question: COc1nc2ccccc2c2c1-c1ccc(Cl)cc1C2=O [SJ-27, 6-Methoxy-9-chloro-11H-indeno[1,2-c]quinolin-11-one] was tested. Which Delta did it give?
Answer: Its Delta is 40.54.

Question: And the Range?
Answer: Its Range is 65.37.

Question: Which results are given for O=C1c2cc(Cl)ccc2-c2c(Cl)nc3ccccc3c21 [TC-XCl-1, 6,9-Dichloro-11H-indeno[1,2-c]quinolin-11-one]?
Answer: Delta: 33.31; Range: 73.59

Question: What does the source list for CN1CCN(c2nc3ccccc3c3c2-c2ccc(Cl)cc2C3=O)CC1 [SJ-12, 9-Chloro-6-(4-methylpiperazin-1-yl)-11H-indeno[1,2-c]quinolin-11-one]?
Answer: Delta: 49.65; Range: 72.31

Question: Which Delta does the source give for COc1cccc(N2CCN(c3nc4ccccc4c4c3-c3ccc(Cl)cc3C4=O)CC2)c1 [SJ-20, 9-Chloro-6-(4-(3-methoxyphenyl)piperazin-1-yl)-11H-indeno[1,2-c]quinolin-11-one] here?
Answer: Its Delta is 54.39.

Question: What about the Range of the same molecule?
Answer: The Range was 95.58.

Question: Which results are given for O=C1c2cc(Cl)ccc2-c2c(N3CCSCC3)nc3ccccc3c21 [SJ-9, 9-Chloro-6-thiomorpholino-11H-indeno[1,2-c]quinolin-11-one]?
Answer: Delta: 45.14; Range: 72.18

Question: What does the source list for O=C1c2cc(Cl)ccc2-c2c(N3CCOCC3)nc3ccccc3c21 [SJ-8, 9-Chloro-6-morpholino-11H-indeno[1,2-c]quinolin-11-one]?
Answer: Delta: 47.92; Range: 91.19

Question: Which results are given for O=C1c2cc(Cl)ccc2-c2c(O)nc3ccccc3c21 [SJ-26, 6-Hydroxy-9-chloro-11H-indeno[1,2-c]quinolin-11-one]?
Answer: Delta: 29.37; Range: 59.54

Question: Which Delta does the source give for O=C1c2cc(Cl)ccc2-c2c(N3CCN(C(=O)N4CCCCC4)CC3)nc3ccccc3c21 [SJ-23] here?
Answer: Its Delta is 19.69.

Question: And the Range?
Answer: Its Range is 51.13.

Question: With CN(C)c1nc2ccccc2c2c1-c1ccc(Cl)cc1C2=O [SJ-2, 9-Chloro-6-(dimethylamino)-11H-indeno[1,2-c]quinolin-11-one] as the molecule, how does the Delta read?
Answer: The Delta was 86.55.

Question: And the Range?
Answer: Its Range is 113.03.

Question: Which results are given for O=C1c2cc(Cl)ccc2-c2c(SCCO)nc3ccccc3c21 [SJ-25, 6-(2-Hydroxyethylthio)-9-chloro-11H-indeno[1,2-c]quinolin-11-one]?
Answer: Delta: 49.37; Range: 82.39

Question: For O=C1c2cc(Cl)ccc2-c2c(N3CCN(C4CCCC4)CC3)nc3ccccc3c21 [SJ-14, 9-Chloro-6-(4-cyclopentylpiperazin-1-yl)-11H-indeno[1,2-c]quinolin-11-one], which Delta is on record?
Answer: Its Delta is 23.96.

Question: And the Range?
Answer: The Range was 38.16.

Question: Which results are given for O=C1c2cc(Cl)ccc2-c2c(N3CCNCC3)nc3ccccc3c21 [SJ-10, 9-Chloro-6-(piperazin-1-yl)-11H-indeno[1,2-c]quinolin-11-one]?
Answer: Delta: 85.63; Range: 167.25

Question: With CC1CCN(c2nc3ccccc3c3c2-c2ccc(Cl)cc2C3=O)CC1 [SJ-6, 9-Chloro-6-(4-methylpiperidin-1-yl)-11H-indeno[1,2-c]quinolin-11-one] as the molecule, how does the Delta read?
Answer: Its Delta is 32.02.

Question: What about the Range of the same molecule?
Answer: The Range was 70.61.

Question: For O=C1c2cc(Cl)ccc2-c2c(N3CCN(c4ccccc4)CC3)nc3ccccc3c21 [SJ-16, 9-Chloro-6-(4-phenylpiperazin-1-yl)-11H-indeno[1,2-c]quinolin-11-one], which Delta is on record?
Answer: The Delta was 54.09.

Question: And the Range?
Answer: The Range was 82.41.
